This passage reports step yield results from US20260226102A1 (priority 2022, published 2026).

The data set in a line: general procedure: hybrid (solid and solution phase) peptide synthesis; glycine pre-loaded CTC resin; Oxyma/DIC. As to conditions: coupling step.

In turn, Fmoc-G-P-S-S-G-A-P-P-S-CONH2 yielded a step yield of 70% yield.
